Drawing on PMC6411374, “Substrate channeling in oxylipin biosynthesis through a protein complex in the plastid envelope of Arabidopsis thaliana” (Journal of Experimental Botany, 2019), this text covers binding for four molecules.

The target of test [1] is T1, AOS in the split-ubiquitin system (bait AOS-Cub and prey NubG-AOS) (A. thaliana) (UniProt Q96242).
T1 sequence: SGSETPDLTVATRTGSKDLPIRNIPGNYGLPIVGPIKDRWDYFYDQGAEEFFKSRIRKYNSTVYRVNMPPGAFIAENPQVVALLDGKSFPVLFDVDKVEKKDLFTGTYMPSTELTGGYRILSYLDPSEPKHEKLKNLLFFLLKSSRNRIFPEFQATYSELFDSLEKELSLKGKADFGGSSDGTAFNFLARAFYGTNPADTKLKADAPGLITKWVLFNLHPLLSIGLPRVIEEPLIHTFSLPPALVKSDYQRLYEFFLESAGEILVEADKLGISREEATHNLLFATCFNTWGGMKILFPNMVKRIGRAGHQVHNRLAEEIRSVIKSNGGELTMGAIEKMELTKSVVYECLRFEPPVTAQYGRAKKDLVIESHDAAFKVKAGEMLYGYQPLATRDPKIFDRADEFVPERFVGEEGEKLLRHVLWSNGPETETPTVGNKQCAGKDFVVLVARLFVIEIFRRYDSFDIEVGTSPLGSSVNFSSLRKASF
Description: two-hybrid; split-ubiquitin yeast two-hybrid for membrane-bound proteins (Dualsystems Biotech), yeast strain DSY1; baits fused to Cub, preys to NubG; growth on SD -Leu/-Trp/-His with 5 mM 3-amino-1,2,4-triazole and relative beta-galactosidase activity.

For test [2], the target named is T2, LOX2 bait in the split-ubiquitin system (LOX2-Cub) (A. thaliana) (UniProt P38418).
T2 sequence: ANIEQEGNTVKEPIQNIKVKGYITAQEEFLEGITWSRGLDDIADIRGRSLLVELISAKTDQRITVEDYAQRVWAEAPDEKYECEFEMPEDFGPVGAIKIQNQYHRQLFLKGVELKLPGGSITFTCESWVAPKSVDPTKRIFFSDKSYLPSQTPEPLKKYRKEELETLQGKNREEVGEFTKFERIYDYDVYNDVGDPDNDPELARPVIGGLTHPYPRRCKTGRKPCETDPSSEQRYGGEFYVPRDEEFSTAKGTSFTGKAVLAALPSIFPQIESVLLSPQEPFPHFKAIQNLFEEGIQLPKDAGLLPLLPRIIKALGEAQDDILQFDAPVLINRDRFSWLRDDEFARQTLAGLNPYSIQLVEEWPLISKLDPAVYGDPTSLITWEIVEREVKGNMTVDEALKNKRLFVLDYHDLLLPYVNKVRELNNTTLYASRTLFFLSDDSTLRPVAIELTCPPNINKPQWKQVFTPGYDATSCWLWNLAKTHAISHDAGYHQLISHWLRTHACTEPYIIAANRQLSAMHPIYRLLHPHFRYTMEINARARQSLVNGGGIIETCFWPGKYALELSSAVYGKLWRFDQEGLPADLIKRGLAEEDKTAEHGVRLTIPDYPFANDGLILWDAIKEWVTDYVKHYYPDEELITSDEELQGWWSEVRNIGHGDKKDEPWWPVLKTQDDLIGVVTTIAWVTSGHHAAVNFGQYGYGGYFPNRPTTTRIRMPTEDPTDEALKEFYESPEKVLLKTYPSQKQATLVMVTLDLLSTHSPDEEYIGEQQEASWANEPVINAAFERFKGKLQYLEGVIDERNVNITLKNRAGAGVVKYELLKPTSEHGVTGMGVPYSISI
The description is as above.

The target in test [3] is T3, C-terminal, (His)6-tagged allene oxide synthase [AOS-(His)6] (A. thaliana) (UniProt Q96242).
T3 sequence: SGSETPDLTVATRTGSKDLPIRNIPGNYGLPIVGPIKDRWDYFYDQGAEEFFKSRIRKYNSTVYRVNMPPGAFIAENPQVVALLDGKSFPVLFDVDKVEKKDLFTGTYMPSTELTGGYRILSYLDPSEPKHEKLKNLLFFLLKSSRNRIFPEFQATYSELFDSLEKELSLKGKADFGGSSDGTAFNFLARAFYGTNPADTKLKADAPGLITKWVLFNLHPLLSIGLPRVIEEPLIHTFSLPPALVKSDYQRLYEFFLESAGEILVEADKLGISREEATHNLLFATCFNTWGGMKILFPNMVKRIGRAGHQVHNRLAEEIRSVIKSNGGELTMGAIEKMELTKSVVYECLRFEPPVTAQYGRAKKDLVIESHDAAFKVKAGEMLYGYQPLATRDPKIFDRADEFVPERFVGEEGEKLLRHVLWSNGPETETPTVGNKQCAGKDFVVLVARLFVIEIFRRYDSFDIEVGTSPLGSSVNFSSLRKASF
Kind of test: pull-down; purified (His)6-tagged bait imported into isolated Arabidopsis chloroplasts (2.5 mM Mg-ATP); mixed envelopes solubilised with […] decyl maltoside; Ni-NTA affinity chromatography, size exclusion on Superose 6 (peak I, ~250 kDa); co-purified bands identified by SDS-PAGE with protein sequencing, LOX2 also by western blot; only the target purified.

Results are given in words; binding and its absence hold for the method and conditions named. For part of these data: In cells and extracts the contact can be indirect. Some results given as binding are weak or reduced against the parent protein; the word gives no strength. For part of these data: Where a sequence is shown, tags or fusion partners need not be part of it.

B1: AOS in the split-ubiquitin system (bait AOS-Cub and prey NubG-AOS) (enzyme, UniProt Q96242 34-518)
chain: SGSETPDLTVATRTGSKDLPIRNIPGNYGLPIVGPIKDRWDYFYDQGAEEFFKSRIRKYNSTVYRVNMPPGAFIAENPQVVALLDGKSFPVLFDVDKVEKKDLFTGTYMPSTELTGGYRILSYLDPSEPKHEKLKNLLFFLLKSSRNRIFPEFQATYSELFDSLEKELSLKGKADFGGSSDGTAFNFLARAFYGTNPADTKLKADAPGLITKWVLFNLHPLLSIGLPRVIEEPLIHTFSLPPALVKSDYQRLYEFFLESAGEILVEADKLGISREEATHNLLFATCFNTWGGMKILFPNMVKRIGRAGHQVHNRLAEEIRSVIKSNGGELTMGAIEKMELTKSVVYECLRFEPPVTAQYGRAKKDLVIESHDAAFKVKAGEMLYGYQPLATRDPKIFDRADEFVPERFVGEEGEKLLRHVLWSNGPETETPTVGNKQCAGKDFVVLVARLFVIEIFRRYDSFDIEVGTSPLGSSVNFSSLRKASF
Turning to B1, the binding result in test [1] and in test [2] was “binds” throughout.

B2: lipoxygenase 2 (LOX2), endogenous in the envelope of Arabidopsis chloroplasts (enzyme, UniProt P38418 57-896, looked up)
chain: ANIEQEGNTVKEPIQNIKVKGYITAQEEFLEGITWSRGLDDIADIRGRSLLVELISAKTDQRITVEDYAQRVWAEAPDEKYECEFEMPEDFGPVGAIKIQNQYHRQLFLKGVELKLPGGSITFTCESWVAPKSVDPTKRIFFSDKSYLPSQTPEPLKKYRKEELETLQGKNREEVGEFTKFERIYDYDVYNDVGDPDNDPELARPVIGGLTHPYPRRCKTGRKPCETDPSSEQRYGGEFYVPRDEEFSTAKGTSFTGKAVLAALPSIFPQIESVLLSPQEPFPHFKAIQNLFEEGIQLPKDAGLLPLLPRIIKALGEAQDDILQFDAPVLINRDRFSWLRDDEFARQTLAGLNPYSIQLVEEWPLISKLDPAVYGDPTSLITWEIVEREVKGNMTVDEALKNKRLFVLDYHDLLLPYVNKVRELNNTTLYASRTLFFLSDDSTLRPVAIELTCPPNINKPQWKQVFTPGYDATSCWLWNLAKTHAISHDAGYHQLISHWLRTHACTEPYIIAANRQLSAMHPIYRLLHPHFRYTMEINARARQSLVNGGGIIETCFWPGKYALELSSAVYGKLWRFDQEGLPADLIKRGLAEEDKTAEHGVRLTIPDYPFANDGLILWDAIKEWVTDYVKHYYPDEELITSDEELQGWWSEVRNIGHGDKKDEPWWPVLKTQDDLIGVVTTIAWVTSGHHAAVNFGQYGYGGYFPNRPTTTRIRMPTEDPTDEALKEFYESPEKVLLKTYPSQKQATLVMVTLDLLSTHSPDEEYIGEQQEASWANEPVINAAFERFKGKLQYLEGVIDERNVNITLKNRAGAGVVKYELLKPTSEHGVTGMGVPYSISI
notes: lipoxygenase 2 (LOX2), A. thaliana, ~100 kDa band of the plastid envelope; also called 13-lipoxygenase; source: endogenous, envelopes of isolated Arabidopsis chloroplasts
Turning to B2, in test [3], the binding result is “binds”.

B3: AOC2 prey in the split-ubiquitin system (NubG-AOC2) (enzyme, UniProt Q9LS02 78-253)
chain: PSKVQELSVYEINELDRHSPKILKNAFSLMFGLGDLVPFTNKLYTGDLKKRVGITAGLCVVIEHVPEKKGERFEATYSFYFGDYGHLSVQGPYLTYEDSFLAITGGAGIFEGAYGQVKLQQLVYPTKLFYTFYLKGLANDLPLELTGTPVPPSKDIEPAPEAKALEPSGVISNYTN
For B3, the binding entry in test [1] and in test [2] was “binds” each time.

B4: allene oxide cyclase 2 (AOC2), endogenous in the envelope of Arabidopsis chloroplasts (enzyme, UniProt Q9LS02 78-253, looked up)
chain: PSKVQELSVYEINELDRHSPKILKNAFSLMFGLGDLVPFTNKLYTGDLKKRVGITAGLCVVIEHVPEKKGERFEATYSFYFGDYGHLSVQGPYLTYEDSFLAITGGAGIFEGAYGQVKLQQLVYPTKLFYTFYLKGLANDLPLELTGTPVPPSKDIEPAPEAKALEPSGVISNYTN
notes: allene oxide cyclase 2 (AOC2), A. thaliana, ~72 kDa (SDS-resistant trimer) and ~24 kDa (monomer) bands of the plastid envelope; Found both as trimer and as monomer; source: endogenous, envelopes of isolated Arabidopsis chloroplasts
B4: the binding result in test [3] is listed as “binds”.
